Compound in this assay: Nc1nc2c(ncn2[C@@H]2O[C@H](COP(=O)(O)OP(=O)(O)OP(=O)(O)O)[C@@H](O)[C@H]2O)c(=O)[nH]1 [guanosine triphosphate]
Nature of the assay: NP40-soluble protein abundance relative to vehicle (solubility fold change) (ratio); higher = more soluble protein in presence of GTP. The method in brief:
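Jurkat crude lysate prepared with a Dounce homogeniser was treated at eight concentrations spanning 0.1 to 10 mM, 10 min at room temperature then 3 min at 37 °C. Solubilisation with 0.8% NP40 and benzonase and ultracentrifugation preceded TMT labelling of the supernatant for LC-MS/MS. Fold change against the detergent-processed vehicle was determined per replicate from vsn-normalised intensities, across three independent experiments.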

Amino acid sequences for entries named in this document (tags omitted). A change or cut given only in a name is not applied to a line headed by its entry.
UniProt Q13740: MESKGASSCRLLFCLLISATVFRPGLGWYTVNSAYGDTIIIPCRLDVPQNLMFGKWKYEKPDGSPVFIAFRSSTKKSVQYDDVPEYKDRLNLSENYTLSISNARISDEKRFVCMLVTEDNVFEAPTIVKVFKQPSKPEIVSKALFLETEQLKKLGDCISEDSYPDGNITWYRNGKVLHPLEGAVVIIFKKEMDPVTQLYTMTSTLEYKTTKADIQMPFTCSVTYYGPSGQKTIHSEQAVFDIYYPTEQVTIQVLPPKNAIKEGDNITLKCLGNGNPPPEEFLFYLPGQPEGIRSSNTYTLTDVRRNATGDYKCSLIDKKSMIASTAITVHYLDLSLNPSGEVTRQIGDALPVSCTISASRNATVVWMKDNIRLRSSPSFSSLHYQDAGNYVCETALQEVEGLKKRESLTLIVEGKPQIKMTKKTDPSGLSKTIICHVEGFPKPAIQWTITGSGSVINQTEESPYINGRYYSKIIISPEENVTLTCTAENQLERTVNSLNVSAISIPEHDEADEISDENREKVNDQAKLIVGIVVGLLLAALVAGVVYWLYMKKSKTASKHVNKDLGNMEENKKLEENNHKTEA
UniProt O00764: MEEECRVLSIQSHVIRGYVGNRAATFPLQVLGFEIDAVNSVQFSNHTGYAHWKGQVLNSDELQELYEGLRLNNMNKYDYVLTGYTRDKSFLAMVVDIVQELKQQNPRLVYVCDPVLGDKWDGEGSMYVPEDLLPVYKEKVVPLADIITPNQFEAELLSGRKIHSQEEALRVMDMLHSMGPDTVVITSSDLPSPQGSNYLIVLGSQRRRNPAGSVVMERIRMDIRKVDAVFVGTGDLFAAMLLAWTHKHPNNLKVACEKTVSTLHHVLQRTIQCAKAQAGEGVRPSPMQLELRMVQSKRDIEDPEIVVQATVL
UniProt Q6UW02: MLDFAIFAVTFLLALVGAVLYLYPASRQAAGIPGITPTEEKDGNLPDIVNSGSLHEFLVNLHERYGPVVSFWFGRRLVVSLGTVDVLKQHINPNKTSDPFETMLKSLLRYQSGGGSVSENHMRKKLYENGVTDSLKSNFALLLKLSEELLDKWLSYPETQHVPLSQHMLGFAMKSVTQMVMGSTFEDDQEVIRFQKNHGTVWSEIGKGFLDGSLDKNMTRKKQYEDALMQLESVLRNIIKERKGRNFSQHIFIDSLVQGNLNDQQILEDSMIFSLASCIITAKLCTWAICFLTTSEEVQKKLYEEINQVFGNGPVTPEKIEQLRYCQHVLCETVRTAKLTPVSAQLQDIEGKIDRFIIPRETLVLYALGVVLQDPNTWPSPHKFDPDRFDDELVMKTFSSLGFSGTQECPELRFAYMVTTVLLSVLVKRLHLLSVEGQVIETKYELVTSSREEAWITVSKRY
UniProt Q53GL7: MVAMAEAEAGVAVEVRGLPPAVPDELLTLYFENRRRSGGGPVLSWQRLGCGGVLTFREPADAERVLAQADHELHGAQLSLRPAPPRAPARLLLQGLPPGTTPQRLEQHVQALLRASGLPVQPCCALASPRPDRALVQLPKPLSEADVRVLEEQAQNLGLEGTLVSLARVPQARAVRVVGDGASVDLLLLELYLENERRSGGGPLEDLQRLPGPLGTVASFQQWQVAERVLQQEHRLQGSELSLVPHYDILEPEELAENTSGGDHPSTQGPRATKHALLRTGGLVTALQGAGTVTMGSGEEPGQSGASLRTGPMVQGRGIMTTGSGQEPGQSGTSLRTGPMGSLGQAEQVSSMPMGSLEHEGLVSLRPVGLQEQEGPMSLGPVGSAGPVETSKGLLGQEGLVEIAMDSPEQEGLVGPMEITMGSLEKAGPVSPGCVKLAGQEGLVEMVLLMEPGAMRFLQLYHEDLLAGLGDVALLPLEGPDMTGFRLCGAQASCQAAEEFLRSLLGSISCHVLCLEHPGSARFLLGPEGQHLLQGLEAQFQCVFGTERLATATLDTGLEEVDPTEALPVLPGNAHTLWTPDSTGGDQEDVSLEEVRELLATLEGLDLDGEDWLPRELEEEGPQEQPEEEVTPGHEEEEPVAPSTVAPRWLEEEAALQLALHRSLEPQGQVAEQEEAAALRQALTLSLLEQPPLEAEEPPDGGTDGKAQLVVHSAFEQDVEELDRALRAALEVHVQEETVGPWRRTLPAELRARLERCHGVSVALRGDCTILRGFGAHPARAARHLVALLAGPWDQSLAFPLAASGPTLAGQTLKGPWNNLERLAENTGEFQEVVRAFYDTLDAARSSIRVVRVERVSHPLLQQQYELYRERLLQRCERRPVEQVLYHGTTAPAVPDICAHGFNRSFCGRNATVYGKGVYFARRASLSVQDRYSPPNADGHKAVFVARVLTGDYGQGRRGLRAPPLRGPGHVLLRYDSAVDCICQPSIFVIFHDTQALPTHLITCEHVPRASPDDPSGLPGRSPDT
UniProt P55786: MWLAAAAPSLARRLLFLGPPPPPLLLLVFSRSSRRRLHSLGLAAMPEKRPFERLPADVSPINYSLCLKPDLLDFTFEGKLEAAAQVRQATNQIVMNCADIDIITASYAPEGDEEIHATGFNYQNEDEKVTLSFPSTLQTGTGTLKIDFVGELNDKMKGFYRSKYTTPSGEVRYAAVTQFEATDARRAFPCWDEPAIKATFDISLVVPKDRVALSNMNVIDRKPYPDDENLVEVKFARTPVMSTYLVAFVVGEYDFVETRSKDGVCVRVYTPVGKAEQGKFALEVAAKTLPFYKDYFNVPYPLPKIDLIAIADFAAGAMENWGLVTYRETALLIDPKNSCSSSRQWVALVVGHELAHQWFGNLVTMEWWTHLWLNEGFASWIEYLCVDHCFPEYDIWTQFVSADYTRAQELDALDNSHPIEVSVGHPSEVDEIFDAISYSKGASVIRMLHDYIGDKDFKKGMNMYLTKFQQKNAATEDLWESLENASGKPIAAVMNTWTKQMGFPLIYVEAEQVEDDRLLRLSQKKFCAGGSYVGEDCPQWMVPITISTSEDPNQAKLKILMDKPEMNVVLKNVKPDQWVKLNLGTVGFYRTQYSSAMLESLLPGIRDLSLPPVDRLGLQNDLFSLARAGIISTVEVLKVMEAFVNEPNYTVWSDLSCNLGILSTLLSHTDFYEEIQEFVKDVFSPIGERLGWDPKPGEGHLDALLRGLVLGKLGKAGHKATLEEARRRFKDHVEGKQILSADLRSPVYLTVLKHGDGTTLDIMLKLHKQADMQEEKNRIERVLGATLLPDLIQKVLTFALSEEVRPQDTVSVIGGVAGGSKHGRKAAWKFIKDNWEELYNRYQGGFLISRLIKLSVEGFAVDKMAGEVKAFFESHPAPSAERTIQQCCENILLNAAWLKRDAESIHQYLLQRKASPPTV
UniProt O94868: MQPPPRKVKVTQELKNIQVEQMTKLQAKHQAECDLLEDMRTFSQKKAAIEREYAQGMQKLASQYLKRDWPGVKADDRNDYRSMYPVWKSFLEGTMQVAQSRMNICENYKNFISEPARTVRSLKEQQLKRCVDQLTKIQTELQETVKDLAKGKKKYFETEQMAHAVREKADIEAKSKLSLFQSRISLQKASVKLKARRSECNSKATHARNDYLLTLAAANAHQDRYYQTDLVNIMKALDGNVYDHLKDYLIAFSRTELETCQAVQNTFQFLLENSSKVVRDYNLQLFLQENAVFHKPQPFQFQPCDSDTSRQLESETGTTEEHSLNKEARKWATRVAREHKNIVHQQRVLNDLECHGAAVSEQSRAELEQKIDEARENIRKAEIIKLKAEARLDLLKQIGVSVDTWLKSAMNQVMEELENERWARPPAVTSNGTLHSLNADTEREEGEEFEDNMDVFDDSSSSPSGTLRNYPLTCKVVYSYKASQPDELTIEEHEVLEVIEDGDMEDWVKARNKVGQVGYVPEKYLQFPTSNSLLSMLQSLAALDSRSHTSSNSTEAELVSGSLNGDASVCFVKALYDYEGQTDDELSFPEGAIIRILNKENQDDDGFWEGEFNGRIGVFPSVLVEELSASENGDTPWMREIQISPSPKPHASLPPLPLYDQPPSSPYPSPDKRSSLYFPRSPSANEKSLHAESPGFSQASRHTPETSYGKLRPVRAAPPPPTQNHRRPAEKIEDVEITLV
UniProt Q9NUW8, whole entry: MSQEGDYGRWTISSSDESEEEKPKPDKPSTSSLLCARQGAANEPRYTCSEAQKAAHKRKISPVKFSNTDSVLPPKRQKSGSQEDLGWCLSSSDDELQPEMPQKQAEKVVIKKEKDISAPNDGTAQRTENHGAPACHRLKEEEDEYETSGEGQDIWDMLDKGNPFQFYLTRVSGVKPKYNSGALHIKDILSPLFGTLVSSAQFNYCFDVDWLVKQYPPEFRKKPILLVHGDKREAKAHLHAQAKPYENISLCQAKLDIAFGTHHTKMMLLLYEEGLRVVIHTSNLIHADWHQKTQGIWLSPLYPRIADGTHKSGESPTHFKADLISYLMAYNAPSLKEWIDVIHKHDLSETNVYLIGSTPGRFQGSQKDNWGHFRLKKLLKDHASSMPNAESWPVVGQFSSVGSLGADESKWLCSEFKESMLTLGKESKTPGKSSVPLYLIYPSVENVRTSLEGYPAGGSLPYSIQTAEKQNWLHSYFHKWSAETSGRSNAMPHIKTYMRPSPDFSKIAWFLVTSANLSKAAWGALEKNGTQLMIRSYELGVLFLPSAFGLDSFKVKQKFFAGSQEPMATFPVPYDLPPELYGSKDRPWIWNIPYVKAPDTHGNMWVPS
UniProt Q9UQ80: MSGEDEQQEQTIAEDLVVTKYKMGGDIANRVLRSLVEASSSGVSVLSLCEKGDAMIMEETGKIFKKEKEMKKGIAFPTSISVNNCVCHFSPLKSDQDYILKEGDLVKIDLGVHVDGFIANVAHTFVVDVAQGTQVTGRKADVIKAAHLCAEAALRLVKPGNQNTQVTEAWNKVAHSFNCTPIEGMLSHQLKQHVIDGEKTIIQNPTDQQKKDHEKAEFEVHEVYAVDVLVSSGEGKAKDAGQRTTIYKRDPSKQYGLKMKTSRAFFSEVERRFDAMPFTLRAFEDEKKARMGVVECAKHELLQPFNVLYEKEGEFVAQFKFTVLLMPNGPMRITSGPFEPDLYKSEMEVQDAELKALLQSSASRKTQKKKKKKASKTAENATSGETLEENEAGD
UniProt Q5H9R7: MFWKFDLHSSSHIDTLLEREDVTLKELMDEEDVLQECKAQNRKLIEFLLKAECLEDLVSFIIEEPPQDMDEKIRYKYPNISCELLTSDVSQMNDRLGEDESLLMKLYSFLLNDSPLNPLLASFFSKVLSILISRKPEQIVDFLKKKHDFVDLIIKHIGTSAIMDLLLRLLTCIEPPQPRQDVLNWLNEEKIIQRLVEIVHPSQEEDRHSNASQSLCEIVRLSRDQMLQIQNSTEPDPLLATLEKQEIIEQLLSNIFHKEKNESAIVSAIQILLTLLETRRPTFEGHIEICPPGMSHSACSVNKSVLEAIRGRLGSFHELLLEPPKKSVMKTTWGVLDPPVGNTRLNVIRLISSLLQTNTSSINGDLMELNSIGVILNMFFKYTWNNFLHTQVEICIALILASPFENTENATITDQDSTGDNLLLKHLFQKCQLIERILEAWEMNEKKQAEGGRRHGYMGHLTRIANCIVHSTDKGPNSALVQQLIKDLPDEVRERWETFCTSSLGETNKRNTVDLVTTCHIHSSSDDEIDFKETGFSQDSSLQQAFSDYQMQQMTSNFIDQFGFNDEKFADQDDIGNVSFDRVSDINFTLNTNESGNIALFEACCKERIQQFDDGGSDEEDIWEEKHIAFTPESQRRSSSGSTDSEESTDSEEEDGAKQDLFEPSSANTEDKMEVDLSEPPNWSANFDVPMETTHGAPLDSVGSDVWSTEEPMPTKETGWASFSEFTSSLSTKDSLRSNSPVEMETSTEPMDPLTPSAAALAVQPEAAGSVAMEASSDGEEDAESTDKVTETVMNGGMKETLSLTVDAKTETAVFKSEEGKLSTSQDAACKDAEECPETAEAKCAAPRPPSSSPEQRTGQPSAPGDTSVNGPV
UniProt Q6NS38: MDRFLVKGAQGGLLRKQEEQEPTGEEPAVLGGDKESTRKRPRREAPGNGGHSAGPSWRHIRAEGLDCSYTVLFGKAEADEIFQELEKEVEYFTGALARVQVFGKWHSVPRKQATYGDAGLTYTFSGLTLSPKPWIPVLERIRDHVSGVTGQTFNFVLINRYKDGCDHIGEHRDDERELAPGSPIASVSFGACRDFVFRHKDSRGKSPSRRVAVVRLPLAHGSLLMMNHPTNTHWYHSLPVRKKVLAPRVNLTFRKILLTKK

± gives the standard deviation of the averaged measurements. The list shows a part of the results.

For “F5GXJ9 and related entries (UniProt Q13740)”, the NP40-soluble protein abundance is, setting by setting: (concentration: 0.1mM) 0.832 ± 0.064; (concentration: 0.5mM) 0.877 ± 0.076; (concentration: 1mM) 0.92 ± 0.11; (concentration: 2mM) 0.879 ± 0.086; (concentration: 4mM) 0.868 ± 0.057; (concentration: 6mM) 0.895 ± 0.083. Besides, the NP40-soluble protein abundance was found to be 0.832 ± 0.055 (concentration: 8mM) and 0.893 ± 0.11 (concentration: 10mM).
Take “F2Z2Y4 and related entries (UniProt O00764)”: the NP40-soluble protein abundance (concentration: 0.1mM) was found to be 1 ± 0.072; the NP40-soluble protein abundance (concentration: 0.5mM) came to 1.01 ± 0.09; the NP40-soluble protein abundance (concentration: 1mM) worked out at 0.942 ± 0.055; the NP40-soluble protein abundance (concentration: 2mM) came to 0.918 ± 0.095; the NP40-soluble protein abundance (concentration: 4mM) stood at 0.905 ± 0.071; the NP40-soluble protein abundance (concentration: 6mM) turned out to be 0.91 ± 0.08. In addition, the NP40-soluble protein abundance reads like this: (concentration: 8mM) 0.88 ± 0.063; (concentration: 10mM) 0.868 ± 0.086.
Consider “E9PHG5 and related entries (UniProt Q6UW02)”, for which the NP40-soluble protein abundance is, setting by setting: (concentration: 0.1mM) 1.1 ± 0.21; (concentration: 0.5mM) 1.04 ± 0.17; (concentration: 1mM) 1.01 ± 0.075; (concentration: 2mM) 1.04 ± 0.061; (concentration: 4mM) 0.955 ± 0.16; (concentration: 6mM) 0.984 ± 0.14. The NP40-soluble protein abundance is, setting by setting: (concentration: 8mM) 0.882 ± 0.25; (concentration: 10mM) 0.884 ± 0.14.
Take “F8W7C6 and related entries (UniProt P27635)”: the NP40-soluble protein abundance (concentration: 0.1mM) was 0.997 ± 0.043; the NP40-soluble protein abundance (concentration: 0.5mM) is 1 ± 0.083; the NP40-soluble protein abundance (concentration: 1mM) came out at 1.03 ± 0.11; the NP40-soluble protein abundance (concentration: 2mM) amounted to 0.918 ± 0.1; the NP40-soluble protein abundance (concentration: 4mM) was determined as 0.886 ± 0.16; the NP40-soluble protein abundance (concentration: 6mM) was 0.86 ± 0.12. Also, the NP40-soluble protein abundance is 0.787 ± 0.11 (concentration: 8mM) and 0.901 ± 0.13 (concentration: 10mM).
Take “E9PK67 and related entries (UniProt Q53GL7)”: the NP40-soluble protein abundance came to 1.05 ± 0.097 (concentration: 0.1mM); 1.06 ± 0.12 (concentration: 0.5mM); 0.954 ± 0.041 (concentration: 1mM); 1.01 ± 0.15 (concentration: 2mM); 0.982 ± 0.12 (concentration: 4mM); 0.935 ± 0.11 (concentration: 6mM). In addition, the NP40-soluble protein abundance turned out to be 0.949 ± 0.019 (concentration: 8mM) and 0.949 ± 0.08 (concentration: 10mM).
As to “E9PLK3 and related entries (UniProt P55786)”, the NP40-soluble protein abundance by setting is: (concentration: 0.1mM) 1.01 ± 0.048; (concentration: 0.5mM) 1.03 ± 0.043; (concentration: 1mM) 0.913 ± 0.034; (concentration: 2mM) 0.92 ± 0.021; (concentration: 4mM) 0.9 ± 0.02; (concentration: 6mM) 0.891 ± 0.0091. In addition, the NP40-soluble protein abundance runs as follows: (concentration: 8mM) 0.852 ± 0.074; (concentration: 10mM) 0.834 ± 0.075.
With “E7ETB3 and related entries (UniProt Q9ULA0)”, the NP40-soluble protein abundance was determined as 1.04 ± 0.052 (concentration: 0.1mM); 1.08 ± 0.071 (concentration: 0.5mM); 0.998 ± 0.097 (concentration: 1mM); 1.08 ± 0.15 (concentration: 2mM); 1.05 ± 0.14 (concentration: 4mM); 1.06 ± 0.15 (concentration: 6mM). The NP40-soluble protein abundance is, setting by setting: (concentration: 8mM) 1.03 ± 0.12; (concentration: 10mM) 1.02 ± 0.11.
“E9PG19 and related entries (UniProt O94868)”: the NP40-soluble protein abundance stood at 1.04 ± 0.034 (concentration: 0.1mM); 1.01 ± 0.029 (concentration: 0.5mM); 1.02 ± 0.018 (concentration: 1mM); 0.985 ± 0.04 (concentration: 2mM); 0.987 ± 0.083 (concentration: 4mM); 1.01 ± 0.076 (concentration: 6mM). The NP40-soluble protein abundance was 0.99 ± 0.025 (concentration: 8mM) and 0.9803 ± 0.0073 (concentration: 10mM).
Consider “E7EPD8 and related entries (UniProt Q9NUW8)”, for which the NP40-soluble protein abundance came to 1.01 ± 0.052 (concentration: 0.1mM); 0.997 ± 0.021 (concentration: 0.5mM); 0.97 ± 0.032 (concentration: 1mM); 0.975 ± 0.027 (concentration: 2mM); 0.99 ± 0.025 (concentration: 4mM); 0.967 ± 0.024 (concentration: 6mM). In addition, the NP40-soluble protein abundance came out at 0.983 ± 0.049 (concentration: 8mM) and 0.964 ± 0.057 (concentration: 10mM).
Turning to E9PGC8 (UniProt P78559), the NP40-soluble protein abundance (concentration: 0.1mM) turned out to be 0.986 ± 0.06; the NP40-soluble protein abundance (concentration: 0.5mM) was found to be 0.976 ± 0.062; the NP40-soluble protein abundance (concentration: 1mM) was determined as 1.01 ± 0.069; the NP40-soluble protein abundance (concentration: 2mM) was 0.962 ± 0.071; the NP40-soluble protein abundance (concentration: 4mM) amounted to 0.962 ± 0.061; the NP40-soluble protein abundance (concentration: 6mM) was found to be 0.973 ± 0.059. For the same target, the NP40-soluble protein abundance was found to be 1 ± 0.064 (concentration: 8mM) and 0.999 ± 0.074 (concentration: 10mM).
Consider “F8VZ69 and related entries (UniProt Q9UQ80)”, for which the NP40-soluble protein abundance runs as follows: (concentration: 0.1mM) 0.903 ± 0.057; (concentration: 0.5mM) 0.926 ± 0.052; (concentration: 1mM) 0.843 ± 0.048; (concentration: 2mM) 0.813 ± 0.045; (concentration: 4mM) 0.778 ± 0.036; (concentration: 6mM) 0.823 ± 0.046. Further, the NP40-soluble protein abundance runs as follows: (concentration: 8mM) 0.799 ± 0.058; (concentration: 10mM) 0.789 ± 0.054.
Turning to “E9PKF6 and related entries (UniProt Q5H9R7)”, the NP40-soluble protein abundance is, setting by setting: (concentration: 0.1mM) 0.948 ± 0.042; (concentration: 0.5mM) 0.949 ± 0.046; (concentration: 1mM) 0.96 ± 0.048; (concentration: 2mM) 0.912 ± 0.051; (concentration: 4mM) 0.908 ± 0.04; (concentration: 6mM) 0.927 ± 0.056. In addition, the NP40-soluble protein abundance reads like this: (concentration: 8mM) 0.933 ± 0.031; (concentration: 10mM) 0.919 ± 0.055.
“F5GZZ0 and related entries (UniProt Q6NS38)”: the NP40-soluble protein abundance is, setting by setting: (concentration: 0.1mM) 0.99515 ± 0.00044; (concentration: 0.5mM) 0.947 ± 0.015; (concentration: 1mM) 0.914 ± 0.024; (concentration: 2mM) 0.941 ± 0.1; (concentration: 4mM) 1.03 ± 0.033; (concentration: 6mM) 1.016 ± 0.0074. For the same target, the NP40-soluble protein abundance (concentration: 8mM) turned out to be 0.985 ± 0.04 and the NP40-soluble protein abundance (concentration: 10mM) was 0.991 ± 0.021.

For the origin of these results see the supplement of paper PMC6411743.
